The list shows a part of the results.
Molecular target: OsWRKY34 (Oryza sativa, UniProt Q0JBA9 1-250)
Assay: protein-binding microarray (RPBM); PBS, 2% BSA, 51.3 ng/ul salmon testes DNA, 50 uM zinc acetate, 200 nM TF, 25 C, 1 h; high values mean tight binding
Conditions: protein: recombinant; tags: N-terminal polyhistidine and DsRed monomer fusion (pET32a); label: CyDye5-dUTP incorporated in the synthesized complementary strand; 3' TTTTT single-stranded linker to array surface; dsDNA, one strand shown
Procedure, shortened: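 Using Ni–NTA, transcription factors fused N-terminally to polyhistidine and DsRed were purified after expression in E. coli BL21-CodonPlus. These were incubated at 200 nM with a blocked, double-stranded custom Agilent array for 1 h at 25 °C in a buffer containing 50 µM zinc acetate, and the array was washed. The binding signal is per-feature fluorescence intensity (arbitrary units) on an Axon 4000B scanner.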

Amino acid sequences for entries named in this document (tags omitted).
UniProt Q0JBA9, entry or part of it: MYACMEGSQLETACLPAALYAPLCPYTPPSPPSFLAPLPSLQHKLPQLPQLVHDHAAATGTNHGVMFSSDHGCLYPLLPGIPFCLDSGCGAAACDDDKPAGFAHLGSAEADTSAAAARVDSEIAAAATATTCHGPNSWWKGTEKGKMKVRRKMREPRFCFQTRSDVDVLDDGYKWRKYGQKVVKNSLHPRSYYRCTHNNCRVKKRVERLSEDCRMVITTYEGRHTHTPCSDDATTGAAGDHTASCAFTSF

In order of falling binding signal:
1. CGCCGTTGACTTTTTTAAAAATGTTTGACCGTTCCTCTTACGGAGTCACCTAGTGCAG  20900 fluorescence intensity (a.u.)
2. GGTCGCCGGATCGCGGGAGGGAGGGAGGGAGGGAGGGAGGCGGAGTCACCTAGTGCAG  14100 fluorescence intensity (a.u.)
3. AGGGGATCGATTTGGGATAGGGTTGTTAGATTTGGGGCTACGGAGTCACCTAGTGCAG  14000 fluorescence intensity (a.u.)
4. CGGTCTTCGGTCTTTCGGTCATTTCGGTCTTTGCAATCTCCGGAGTCACCTAGTGCAG  12700 fluorescence intensity (a.u.)
5. ACTGATTTCCCGTCTATCCTGTGGCACCATTCATACTTCACGGAGTCACCTAGTGCAG  12500 fluorescence intensity (a.u.)
6. GTCGTCGCCATCTTCGGTCCACATCTCCACCGACAAGTCCCGGAGTCACCTAGTGCAG  11600 fluorescence intensity (a.u.)
7. CTTTTCTTTTTTTTCTTTTTTCCGATTAATGTGGGAATTTCGGAGTCACCTAGTGCAG  11200 fluorescence intensity (a.u.)
8. TACCAGATGAACTCTTTCCAATAATGTGATTGCCGGTGTTCGGAGTCACCTAGTGCAG  11100 fluorescence intensity (a.u.)
9. AACTCATATGACAGTGATCTTCCATTCCACTTTCTATCTACGGAGTCACCTAGTGCAG  11100 fluorescence intensity (a.u.)
10. CATTCTGCTATATCCTGAGATCTTCCTAGCTATCATCTGCCGGAGTCACCTAGTGCAG  11000 fluorescence intensity (a.u.)
11. CTGCTTCTGAATTTCTCCATTCTTTCCAGCAAGCTTACCACGGAGTCACCTAGTGCAG  10600 fluorescence intensity (a.u.)
12. CCTCGGCTCCCATCCACTACCGTTTGCTACTCCGGCGCCGCGGAGTCACCTAGTGCAG  10600 fluorescence intensity (a.u.)
13. ATGGCCACTTGTCTTTTTCTTTAGTTACTACCAATTTCTACGGAGTCACCTAGTGCAG  10400 fluorescence intensity (a.u.)
14. GACCTGATTCTTTGCCTTCGTAAATTCCGTCAACGCACCTCGGAGTCACCTAGTGCAG  10400 fluorescence intensity (a.u.)
15. TCCTTGCACTGTTGCTGCTGCTGATGCTTCACGTCGTCCGCGGAGTCACCTAGTGCAG  10300 fluorescence intensity (a.u.)
16. GCGGAGCGGAGCGTGTCGGGTGGGAGGTGGCAGCTGGCGGCGGAGTCACCTAGTGCAG  10200 fluorescence intensity (a.u.)
17. AATTTTTTTTCAGCTGATCGCCACTTTATTCTTTTCATACCGGAGTCACCTAGTGCAG  10200 fluorescence intensity (a.u.)
18. TTCGACATCGATTGATCACTCACATACTATATTTATACATCGGAGTCACCTAGTGCAG  10000 fluorescence intensity (a.u.)
19. ACCCGTCTTGCAAAGTTGCCAATCGTCAAGGCCTCGCACGCGGAGTCACCTAGTGCAG  9940 fluorescence intensity (a.u.)
20. TTGACGCTGATCAAACCAAATTAATTACTCTCTCCGTTTCCGGAGTCACCTAGTGCAG  9890 fluorescence intensity (a.u.)
21. CGGTCAAAACTATTCTCGGCTTACGACATCTCGCAGTCTCCGGAGTCACCTAGTGCAG  9870 fluorescence intensity (a.u.)
22. GCCTCACCGCCTCAATCCTCATCCGTGTCTAACTCGAACGCGGAGTCACCTAGTGCAG  9850 fluorescence intensity (a.u.)
23. TTTAAAAGTCAACGGCGTCAGAGGGAGTATATATTTTAGCCGGAGTCACCTAGTGCAG  9840 fluorescence intensity (a.u.)
24. TGTATTGTTTGCTGTTAATTAGTTAGTCTTATTCTCACCACGGAGTCACCTAGTGCAG  9780 fluorescence intensity (a.u.)
25. CCGGATTATTCTTCCGTTGCCTTGTATCTGTCATTGCTGGCGGAGTCACCTAGTGCAG  9770 fluorescence intensity (a.u.)
26. TCATGTCGTTTCTAATCTGGTGCCTGTCCTCTATCCTTAACGGAGTCACCTAGTGCAG  9740 fluorescence intensity (a.u.)
27. TTTTTGGTTTGCGTTTCTTAGAACTGGAGTGTTTTTTTTTCGGAGTCACCTAGTGCAG  9740 fluorescence intensity (a.u.)
28. ATATTCTCCTATCACATGTGCGGGGCTTATCCCTTCCACCCGGAGTCACCTAGTGCAG  9630 fluorescence intensity (a.u.)
29. TACCTCTCTTGCTACTATCTCTACTGCAGCTACTAGGGCACGGAGTCACCTAGTGCAG  9570 fluorescence intensity (a.u.)
30. TCGCCGGCGGAGGAGTTGGTGTGGAGAGGGCGGGGAGATGCGGAGTCACCTAGTGCAG  9560 fluorescence intensity (a.u.)
31. ACCTTTATAAAAAAAGTCTAATTATTGCCTAGCTTTTTCCCGGAGTCACCTAGTGCAG  9380 fluorescence intensity (a.u.)
32. GCACCGTTTAGTTCCTCAAAATTTTCTTTTACCAAAAACACGGAGTCACCTAGTGCAG  9160 fluorescence intensity (a.u.)
33. TAGGGCTTACACCGTCGTTTTCGCTCCCTTTTGGCTGCCTCGGAGTCACCTAGTGCAG  9010 fluorescence intensity (a.u.)
34. AGCCTTATCTCTTCATCGGTTCATCCGGTGCCTGTTGTCTCGGAGTCACCTAGTGCAG  8990 fluorescence intensity (a.u.)
35. CTACCCGGCCGACCCCGCCGCCGCCGCCCGAGCCCTCGCCCGGAGTCACCTAGTGCAG  8980 fluorescence intensity (a.u.)
36. GATCTCTTCATTTCCTTGCTGCCATCCTACTGAAGAAGATCGGAGTCACCTAGTGCAG  8980 fluorescence intensity (a.u.)
37. GTTCCCATCTTTCTCTCTCTCTCTTTTTTTCTGGAAGAAGCGGAGTCACCTAGTGCAG  8910 fluorescence intensity (a.u.)
38. TCAAAAGGTCCAAGCCCCGAATGTCAACTAATTCATCACTCGGAGTCACCTAGTGCAG  8890 fluorescence intensity (a.u.)
39. GGGCTTCCTCACTTGTGCCATGTTTGTTGCTCACTCCTTTCGGAGTCACCTAGTGCAG  8770 fluorescence intensity (a.u.)
40. GTGGTGGTAGTGGTAGTGGAGTGAGTGTAGGGGCCTCATGCGGAGTCACCTAGTGCAG  8700 fluorescence intensity (a.u.)
41. CCATTCCATCTCCGGTCTGAGCCGCCGCCGCCGCCTTCTTCGGAGTCACCTAGTGCAG  8690 fluorescence intensity (a.u.)
42. CTGTACCCCGCTACTCCTCTTTCTCCTCTTTTATCTTTTCCGGAGTCACCTAGTGCAG  8630 fluorescence intensity (a.u.)
43. CGCGCTCTGCATGTCGGTCCGTCAACTTGATCGCGATTCTCGGAGTCACCTAGTGCAG  8590 fluorescence intensity (a.u.)
44. CCGCCGCCATCAAGTCCGCCATCATGACCACCGGTGAGAACGGAGTCACCTAGTGCAG  8490 fluorescence intensity (a.u.)
45. CGCTGTCCACTGTCCACACCCGCACACGCCGCTTCCCACCCGGAGTCACCTAGTGCAG  8410 fluorescence intensity (a.u.)
46. TTCAATTTTGGCCCATGAGCGTACCTGCAGCCCATTCATACGGAGTCACCTAGTGCAG  8360 fluorescence intensity (a.u.)
47. ATGGAGAGGCAACATAGACTTTTTTCCCAGGTTAAAACCACGGAGTCACCTAGTGCAG  8330 fluorescence intensity (a.u.)
48. AGGAAAAACTATTCCCGTCCTCTGCTTCTTCATCCTCGTGCGGAGTCACCTAGTGCAG  8300 fluorescence intensity (a.u.)
49. TCTTTAGCCGGCGTTGCTTTTTTTGGGATTTCTTGGGAGTCGGAGTCACCTAGTGCAG  8290 fluorescence intensity (a.u.)
50. CAATTAGTTAAATATGTCAGATCGTTTACTTTCTTTTTGACGGAGTCACCTAGTGCAG  8260 fluorescence intensity (a.u.)
51. AGTGGTTTGTGCTGCACTGCTTCATGTAACGTGAAATACTCGGAGTCACCTAGTGCAG  8250 fluorescence intensity (a.u.)
52. ATCTTAACCATGTCATCAGGCACTTCGTTTGCTAGCCATGCGGAGTCACCTAGTGCAG  8210 fluorescence intensity (a.u.)
53. GTAGCAATGGGCGGCGGGGAGCGGGGCTGAGCGGCAGCCGCGGAGTCACCTAGTGCAG  8150 fluorescence intensity (a.u.)
54. AATCTCATCCTAATTCTGTTTTAATTTCTGGTGGGAATTTCGGAGTCACCTAGTGCAG  8070 fluorescence intensity (a.u.)
